Measured values reported in patent US20030027319A1.
These are yes or no findings as the source states them, for the method shown. Some results given as binding are weak or reduced against the parent protein; the word gives no strength.

Amino acid sequences for entries named in this document (tags omitted). Residues count along the entry.
UniProt P0CG63, residues 1-76: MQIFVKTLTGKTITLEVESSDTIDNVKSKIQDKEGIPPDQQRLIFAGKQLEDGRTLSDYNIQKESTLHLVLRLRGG

The binders below were run against Yeast ubiquitin (yeast) (UniProt P0CG63) (assay: clone from phage panning on immobilized ubiquitin; no ELISA of the single clone reported).

binding	Binder
binds	ubiquitin-binding monobody 422 (designed binder, not shown: large carriers) MQVSDVPRDLEVVAATPTSLLISWDAPARWTLYYRITYGETGGNSPVQEFTVPGSKSTATISGLKPGVDYTITVYAVTRRWWWSKPISINYRT
binds	ubiquitin-binding monobody 424 (designed binder, not shown: large carriers) MQVSDVPRDLEVVAATPTSLLISWDAPGQRTFYYRITYGETGGNSPVQEFTVPGSKSTATISGLKPGVDYTITVYAVTRRWWASKPISINYRT
binds	ubiquitin-binding monobody 212 (designed binder, not shown: large carriers) MQVSDVPRDLEVVAATPTSLLISWDAPCWRRAYYRITYGETGGNSPVQEFTVPGSKSTATISGLKPGVDYTITVYAVTGRWVGLAWSKPISINYRT
binds	ubiquitin-binding monobody 215 (designed binder, not shown: large carriers) MQVSDVPRDLEVVAATPTSLLISWDAPCNWRRYYRITYGETGGNSPVQEFTVPGSKSTATISGLKPGVDYTITVYAVTGRAYRYRWSKPISINYRT
binds	ubiquitin-binding monobody 211 (designed binder, not shown: large carriers) MQVSDVPRDLEVVAATPTSLLISWDAPCARRAYYRITYGETGGNSPVQEFTVPGSKSTATISGLKPGVDYTITVYAVTGRWIPLAKSKPISINYRT
binds	ubiquitin-binding monobody 213 (designed binder, not shown: large carriers) MQVSDVPRDLEVVAATPTSLLISWDAPCKHRRYYRITYGETGGNSPVQEFTVPGSKSTATISGLKPGVDYTITVYAVTGFADLWWRSKPISINYRT
binds	ubiquitin-binding monobody 214 (designed binder, not shown: large carriers) MQVSDVPRDLEVVAATPTSLLISWDAPCRRGRYYRITYGETGGNSPVQEFTVPGSKSTATISGLKPGVDYTITVYAVTGRGFMWLSSKPISINYRT
